Experimental data: PMC12284064
Results are given in words; binding and its absence hold for the method and conditions named. In cells and extracts the contact can be indirect. Some entries that bind do so weakly or less than the wild type. One block for each binder: values may come before it.

Protein sequences, listed by entry. Tags and fused reporters are not part of them. Lines headed by an entry give the natural chain unless they say otherwise; changes in a name come on top. Residues count along the entry.
UniProt Q9BPZ7: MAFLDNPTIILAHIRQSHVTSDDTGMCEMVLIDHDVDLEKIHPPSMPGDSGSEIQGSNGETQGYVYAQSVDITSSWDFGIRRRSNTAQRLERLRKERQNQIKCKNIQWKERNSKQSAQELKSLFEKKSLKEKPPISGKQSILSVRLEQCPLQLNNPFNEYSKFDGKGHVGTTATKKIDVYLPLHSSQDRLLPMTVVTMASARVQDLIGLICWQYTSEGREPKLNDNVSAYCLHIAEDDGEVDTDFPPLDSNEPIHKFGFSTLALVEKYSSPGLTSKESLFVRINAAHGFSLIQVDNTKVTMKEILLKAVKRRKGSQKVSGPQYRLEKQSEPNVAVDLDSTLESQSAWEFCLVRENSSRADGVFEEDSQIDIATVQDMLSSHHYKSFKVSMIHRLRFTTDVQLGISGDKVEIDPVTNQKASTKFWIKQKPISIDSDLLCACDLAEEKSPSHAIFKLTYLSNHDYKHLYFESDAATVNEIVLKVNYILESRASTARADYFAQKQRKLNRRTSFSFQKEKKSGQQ
SIN1 M2 (138–266aa): residues 138-266 of Q9BPZ7

Legend:
[1] = biological target: SIN1 full-length (FL), construct of the deletion mapping (UniProt Q9BPZ7); assay: co-IP; series of USP33 and SIN1 deletion mutants (Supplementary Fig. 1f, g); tags and cell line not shown
[2] = biological target: SIN1 (Supplementary Fig. 4a, b) (UniProt Q9BPZ7); assay: co-IP; USP33 and SIN1 in PANC-1 cells, with genetic ablation of CDK1 or RO-3306 (binding significantly reduced; Supplementary Fig. 4a); overexpressed USP33 WT or 2A (Supplementary Fig. 4b); method not given, legends not shown
[3] = biological target: stress-activated protein kinase-interacting protein 1 (SIN1), endogenous (human (endogenous in PANC-1)) (UniProt Q9BPZ7); assay: co-IP; endogenous proteins; PANC-1 and MIA PaCa-2 lysates in NETN buffer, primary antibodies (IgG as control) with protein A/G beads overnight at 4 °C; western blot
[4] = biological target: SIN1 M2 (138–266aa) (UniProt Q9BPZ7); assay: co-IP; series of USP33 and SIN1 deletion mutants (Supplementary Fig. 1f, g); tags and cell line not shown

- binding [1]: binds
B1: USP33 M4 (717–942aa) (domain or fragment, UniProt Q8TEY7 717-942)
chain: EEAQKERRRISNLLNIMEPSLLQFYISRQWLNKFKTFAEPGPISNNDFLCIHGGVPPRKAGYIEDLVLMLPQNIWDNLYSRYGGGPAVNHLYICHTCQIEAEKIEKRRKTELEIFIRLNRAFQKEDSPATFYCISMQWFREWESFVKGKDGDPPGPIDNTKIAVTKCGNVMLRQGADSGQISEETWNFLQSIYGGGPEVILRPPVVHVDPDILQAEEKIEVETRSL

- binding [2]: binds
B2: USP33 WT (Supplementary Fig. 4a, b) (enzyme, UniProt Q8TEY7 1-942)
chain: MTGSNSHITILTLKVLPHFESLGKQEKIPNKMSAFRNHCPHLDSVGEITKEDLIQKSLGTCQDCKVQGPNLWACLENRCSYVGCGESQVDHSTIHSQETKHYLTVNLTTLRVWCYACSKEVFLDRKLGTQPSLPHVRQPHQIQENSVQDFKIPSNTTLKTPLVAVFDDLDIEADEEDELRARGLTGLKNIGNTCYMNAALQALSNCPPLTQFFLDCGGLARTDKKPAICKSYLKLMTELWHKSRPGSVVPTTLFQGIKTVNPTFRGYSQQDAQEFLRCLMDLLHEELKEQVMEVEEDPQTITTEETMEEDKSQSDVDFQSCESCSNSDRAENENGSRCFSEDNNETTMLIQDDENNSEMSKDWQKEKMCNKINKVNSEGEFDKDRDSISETVDLNNQETVKVQIHSRASEYITDVHSNDLSTPQILPSNEGVNPRLSASPPKSGNLWPGLAPPHKKAQSASPKRKKQHKKYRSVISDIFDGTIISSVQCLTCDRVSVTLETFQDLSLPIPGKEDLAKLHSSSHPTSIVKAGSCGEAYAPQGWIAFFMEYVKRFVVSCVPSWFWGPVVTLQDCLAAFFARDELKGDNMYSCEKCKKLRNGVKFCKVQNFPEILCIHLKRFRHELMFSTKISTHVSFPLEGLDLQPFLAKDSPAQIVTYDLLSVICHHGTASSGHYIAYCRNNLNNLWYEFDDQSVTEVSESTVQNAEAYVLFYRKSSEEAQKERRRISNLLNIMEPSLLQFYISRQWLNKFKTFAEPGPISNNDFLCIHGGVPPRKAGYIEDLVLMLPQNIWDNLYSRYGGGPAVNHLYICHTCQIEAEKIEKRRKTELEIFIRLNRAFQKEDSPATFYCISMQWFREWESFVKGKDGDPPGPIDNTKIAVTKCGNVMLRQGADSGQISEETWNFLQSIYGGGPEVILRPPVVHVDPDILQAEEKIEVETRSL

- binding [3]: binds
B3: ubiquitin-specific protease 33 (USP33), endogenous (enzyme, UniProt Q8TEY7 1-942)
chain: B2 chain

- binding [4]: binds
- binding [1]: binds
B4: USP33 full-length (FL), construct of the deletion mapping (enzyme, UniProt Q8TEY7 1-942)
chain: B2 chain

- binding [1]: binds
B5: USP33 M5 (811–942aa) (domain or fragment, UniProt Q8TEY7 811-942)
chain: HTCQIEAEKIEKRRKTELEIFIRLNRAFQKEDSPATFYCISMQWFREWESFVKGKDGDPPGPIDNTKIAVTKCGNVMLRQGADSGQISEETWNFLQSIYGGGPEVILRPPVVHVDPDILQAEEKIEVETRSL
